Three molecules from publication PMC4140647 can be followed below.

Amino acid sequences for entries named in this document (tags omitted).
UniProt Q7XZF5: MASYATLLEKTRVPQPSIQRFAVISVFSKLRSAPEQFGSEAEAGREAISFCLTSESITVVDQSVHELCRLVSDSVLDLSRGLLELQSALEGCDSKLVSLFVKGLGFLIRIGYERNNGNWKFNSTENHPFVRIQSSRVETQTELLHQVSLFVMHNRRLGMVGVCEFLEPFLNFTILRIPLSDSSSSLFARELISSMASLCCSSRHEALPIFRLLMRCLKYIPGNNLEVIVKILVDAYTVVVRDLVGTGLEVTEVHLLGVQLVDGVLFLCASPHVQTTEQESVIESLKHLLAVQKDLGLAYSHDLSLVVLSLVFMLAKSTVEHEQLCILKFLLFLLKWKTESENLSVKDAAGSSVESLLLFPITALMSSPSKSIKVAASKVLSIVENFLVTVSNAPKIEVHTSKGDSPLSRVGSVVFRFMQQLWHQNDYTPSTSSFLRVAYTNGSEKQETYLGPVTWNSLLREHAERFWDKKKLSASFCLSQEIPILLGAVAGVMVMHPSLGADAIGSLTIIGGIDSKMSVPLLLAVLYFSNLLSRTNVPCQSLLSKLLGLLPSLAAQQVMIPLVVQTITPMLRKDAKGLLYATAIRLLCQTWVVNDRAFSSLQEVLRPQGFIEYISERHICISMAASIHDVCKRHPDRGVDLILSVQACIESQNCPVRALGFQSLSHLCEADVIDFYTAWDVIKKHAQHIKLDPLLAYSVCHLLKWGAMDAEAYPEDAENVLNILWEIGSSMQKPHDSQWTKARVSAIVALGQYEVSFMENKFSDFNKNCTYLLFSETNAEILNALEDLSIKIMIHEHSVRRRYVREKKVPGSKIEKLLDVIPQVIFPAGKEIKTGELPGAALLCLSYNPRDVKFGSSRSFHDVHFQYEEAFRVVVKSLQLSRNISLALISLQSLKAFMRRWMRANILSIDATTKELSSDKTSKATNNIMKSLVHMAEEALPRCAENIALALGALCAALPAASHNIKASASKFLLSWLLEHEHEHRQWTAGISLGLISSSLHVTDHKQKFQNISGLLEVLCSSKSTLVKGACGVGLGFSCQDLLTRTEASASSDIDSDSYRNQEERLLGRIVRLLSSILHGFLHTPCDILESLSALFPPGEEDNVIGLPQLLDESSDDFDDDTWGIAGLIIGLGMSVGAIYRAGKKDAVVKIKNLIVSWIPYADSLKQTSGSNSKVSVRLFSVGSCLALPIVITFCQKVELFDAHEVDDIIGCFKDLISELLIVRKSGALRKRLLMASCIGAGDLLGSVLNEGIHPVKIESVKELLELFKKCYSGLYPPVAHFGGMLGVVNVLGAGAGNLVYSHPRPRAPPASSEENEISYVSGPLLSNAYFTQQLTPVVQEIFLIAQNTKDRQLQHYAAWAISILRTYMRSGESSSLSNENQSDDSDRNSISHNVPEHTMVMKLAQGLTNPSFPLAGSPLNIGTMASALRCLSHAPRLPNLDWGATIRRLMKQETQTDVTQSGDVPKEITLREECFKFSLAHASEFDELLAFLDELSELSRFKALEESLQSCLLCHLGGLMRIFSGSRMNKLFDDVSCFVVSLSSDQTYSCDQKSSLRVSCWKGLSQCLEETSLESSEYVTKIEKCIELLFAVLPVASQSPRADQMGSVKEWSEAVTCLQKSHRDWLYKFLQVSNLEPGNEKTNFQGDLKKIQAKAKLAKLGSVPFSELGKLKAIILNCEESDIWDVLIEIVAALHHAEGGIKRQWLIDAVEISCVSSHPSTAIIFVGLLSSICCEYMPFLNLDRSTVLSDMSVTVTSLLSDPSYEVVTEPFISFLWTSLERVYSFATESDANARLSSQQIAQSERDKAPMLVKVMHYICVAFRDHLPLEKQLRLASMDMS

Where two headings read alike, the source gives them in different places. These are yes or no findings as the source states them, for the method shown. Binding seen in cells or lysates may run through a third protein. These calls come from enrichment with a bait or labelling near it, and not all partners need be listed. For some assays here: No binding means not detected with the bait. Tags and fused reporters may be left off the sequences shown.

Test [1] addresses T1, GFP-tagged RRP41 (Arabidopsis thaliana) (UniProt Q9SP08).
T1 sequence: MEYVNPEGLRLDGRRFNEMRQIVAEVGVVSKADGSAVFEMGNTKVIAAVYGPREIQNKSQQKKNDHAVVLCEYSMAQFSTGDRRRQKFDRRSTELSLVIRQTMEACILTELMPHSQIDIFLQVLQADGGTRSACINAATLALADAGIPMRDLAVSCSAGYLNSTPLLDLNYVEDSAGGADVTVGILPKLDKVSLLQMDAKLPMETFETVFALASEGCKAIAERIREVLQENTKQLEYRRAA
In words: affinity purification with mass spectrometry; RRP41-myc or RRP41-GFP extracted from flowers of stable Arabidopsis transformants, held on magnetic microparticles coated with monoclonal myc or GFP antibodies (MACS, Miltenyi), SDS omitted from washing buffers; nano LC-MS/MS; three biological repeats crossed, proteins of mock IPs excluded.

Test [2] has as its target T2, myc-tagged RRP41 (Arabidopsis thaliana) (UniProt Q9SP08).
T2 sequence: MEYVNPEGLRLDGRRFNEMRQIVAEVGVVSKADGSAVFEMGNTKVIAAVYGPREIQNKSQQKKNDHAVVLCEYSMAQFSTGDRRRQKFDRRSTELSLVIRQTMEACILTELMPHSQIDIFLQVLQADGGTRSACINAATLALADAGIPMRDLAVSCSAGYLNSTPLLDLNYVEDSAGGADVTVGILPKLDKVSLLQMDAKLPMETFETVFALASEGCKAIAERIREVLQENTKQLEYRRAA
The description is as above.

For test [3], the target named is T3, HEN2-GFP (Arabidopsis thaliana) (UniProt Q9ZVW2).
T3 sequence: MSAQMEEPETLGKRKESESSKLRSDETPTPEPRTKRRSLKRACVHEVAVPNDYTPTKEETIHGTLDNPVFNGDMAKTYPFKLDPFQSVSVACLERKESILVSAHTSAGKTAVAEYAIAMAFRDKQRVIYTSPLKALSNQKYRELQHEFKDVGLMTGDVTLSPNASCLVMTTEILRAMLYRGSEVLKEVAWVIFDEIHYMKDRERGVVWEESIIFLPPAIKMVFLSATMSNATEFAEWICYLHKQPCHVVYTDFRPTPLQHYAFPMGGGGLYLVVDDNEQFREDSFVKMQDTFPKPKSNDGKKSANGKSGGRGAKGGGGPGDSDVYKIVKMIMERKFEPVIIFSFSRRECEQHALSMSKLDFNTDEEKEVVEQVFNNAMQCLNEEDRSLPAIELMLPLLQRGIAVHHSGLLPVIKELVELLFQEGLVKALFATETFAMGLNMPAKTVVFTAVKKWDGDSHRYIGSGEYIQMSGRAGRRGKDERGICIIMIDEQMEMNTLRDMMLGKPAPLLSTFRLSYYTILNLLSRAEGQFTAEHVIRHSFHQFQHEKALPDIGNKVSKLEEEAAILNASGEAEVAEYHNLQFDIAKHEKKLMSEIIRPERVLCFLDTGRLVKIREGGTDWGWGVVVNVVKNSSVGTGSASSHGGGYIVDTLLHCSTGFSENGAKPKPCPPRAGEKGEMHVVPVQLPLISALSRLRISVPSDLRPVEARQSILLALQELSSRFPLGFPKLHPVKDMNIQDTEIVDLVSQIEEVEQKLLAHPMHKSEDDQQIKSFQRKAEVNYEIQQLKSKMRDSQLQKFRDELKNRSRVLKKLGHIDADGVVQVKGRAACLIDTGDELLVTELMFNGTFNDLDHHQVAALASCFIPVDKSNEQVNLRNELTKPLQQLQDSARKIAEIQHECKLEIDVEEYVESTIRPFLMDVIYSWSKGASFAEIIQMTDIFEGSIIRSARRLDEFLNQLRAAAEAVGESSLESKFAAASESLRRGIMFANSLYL
In words: affinity purification with mass spectrometry; HEN2-GFP (hen2 background) extracted from flowers, held on anti-GFP magnetic microparticles (MACS), 50 mM NaCl; LC-MS/MS; duplicates crossed, proteins of mock IPs excluded.

The target in test [4] is T3, HEN2-GFP (Arabidopsis thaliana). In words: affinity purification with mass spectrometry; HEN2-GFP (hen2 background) extracted from flowers, held on anti-GFP magnetic microparticles (MACS), 150 mM NaCl; LC-MS/MS; duplicates crossed, proteins of mock IPs excluded.
Test [5] has as its target T1, GFP-tagged RRP41 (Arabidopsis thaliana). The test is described as follows: affinity purification with mass spectrometry; RRP41-myc or RRP41-GFP extracted from flowers of stable Arabidopsis transformants, held on magnetic microparticles coated with monoclonal myc or GFP antibodies (MACS, Miltenyi), SDS omitted from washing buffers; nano LC-MS/MS; three biological repeats crossed, proteins of mock IPs excluded. This is another data set of the same source.

In test [6] the target is T2, myc-tagged RRP41 (Arabidopsis thaliana). The test is described as above. The source holds these as a separate data set.
For test [7], the target named is T4, AtMTR4-GFP (Arabidopsis thaliana) (UniProt Q9XIF2).
T4 sequence: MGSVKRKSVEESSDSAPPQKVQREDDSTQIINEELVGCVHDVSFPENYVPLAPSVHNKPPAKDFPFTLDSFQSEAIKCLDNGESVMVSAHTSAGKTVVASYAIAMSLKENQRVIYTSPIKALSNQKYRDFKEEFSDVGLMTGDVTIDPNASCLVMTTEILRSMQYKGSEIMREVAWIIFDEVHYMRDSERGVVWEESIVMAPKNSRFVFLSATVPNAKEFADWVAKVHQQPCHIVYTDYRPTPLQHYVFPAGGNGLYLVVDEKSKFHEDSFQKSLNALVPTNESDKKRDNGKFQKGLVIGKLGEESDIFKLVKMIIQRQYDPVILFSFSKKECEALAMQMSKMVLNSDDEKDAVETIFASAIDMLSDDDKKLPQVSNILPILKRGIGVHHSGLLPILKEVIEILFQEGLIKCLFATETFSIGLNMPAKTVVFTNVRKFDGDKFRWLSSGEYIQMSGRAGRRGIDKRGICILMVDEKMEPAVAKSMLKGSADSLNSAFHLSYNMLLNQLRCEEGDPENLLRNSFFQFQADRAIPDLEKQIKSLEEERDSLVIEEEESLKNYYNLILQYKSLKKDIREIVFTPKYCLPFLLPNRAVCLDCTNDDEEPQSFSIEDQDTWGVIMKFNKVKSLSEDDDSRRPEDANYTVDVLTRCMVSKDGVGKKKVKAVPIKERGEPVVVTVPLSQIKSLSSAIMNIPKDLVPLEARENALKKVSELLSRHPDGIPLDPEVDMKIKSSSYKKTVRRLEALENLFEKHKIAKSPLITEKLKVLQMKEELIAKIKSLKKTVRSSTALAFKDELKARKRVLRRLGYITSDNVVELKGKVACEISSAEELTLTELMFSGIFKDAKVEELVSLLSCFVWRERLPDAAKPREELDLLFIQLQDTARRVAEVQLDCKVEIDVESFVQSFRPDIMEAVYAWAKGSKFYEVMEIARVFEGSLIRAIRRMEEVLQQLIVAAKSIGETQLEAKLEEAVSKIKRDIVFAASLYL
In words: affinity purification with mass spectrometry; AtMTR4-GFP (own promoter, mtr4 background) extracted from flowers, held on anti-GFP magnetic microparticles (MACS), SDS omitted from washing buffers; LC-MS/MS; triplicates crossed, proteins of mock IPs excluded.

Take “RESURRECTION 1 (from UniProt Q7XZF5 1-1841)”: the binding result in test [1] and in test [2] was “binds” throughout.

B1: RRP45A (protein, UniProt Q9LDM2 1-307)
chain: MEGRLNNMWRLTVNESKFVESALQSELRVDGRGLYDYRKLTIKFGKEYGSSQVQLGQTHVMAFVTAQLVQPYKDRPSEGSFSIFTEFSPMADPSFEPGHPGESAVELGRIIDRALRESRAVDTESLCVLAGKLVWSVRIDLHILDNGGNLVDAANVAALAALMTFRRPDCTVGGDNSQDVIIHPPEEREPLPLIIHHLPIAFTFGFFNKGSILVMDPTYVEEAVMCGRMTVTVNANGDICAIQKPGEEGVNQSVILHCLRLASSRASATTKIIRDAVEAYNRERSSQKVKRHHTLAKSEVLGPIVVV
For B1, the binding result in test [3] was “binds”; in test [4], “no binding (only 150 mM NaCl)”; in test [5], “binds”; in test [6] it was “binds”.

B2: RRP45B/CER7 (protein, UniProt Q9M209 1-438)
chain: MEGRLANMWRLTVNESKFVETALQSELRVDGRGLYDYRKLTIKFGKEYGSSEVQLGQTHVMGFVTAQLVQPYKDRPNEGSLSIFTEFSPMADPSFEPGRPGESAVELGRIIDRGLRESRAVDTESLCVLAGKMVWSVRIDLHILDNGGNLVDAANIAALAALMTFRRPDCTVGGENGQEVIIHPLEEREPLPLIIHHLPIAFTFGFFNKGNIVVMDPTYVEEAVMCGRMTVTVNANGDICAIQKPGEEGVNQSVILHCLRLASSRAAATTKIIREEVEAYNCERSLQKVKRHPTLAKSEVSGPTVAVKEEHRKSSDQERAAEISREHVERLKLSTEEVRSSKEEEAANFKGGPSNWDPYSEAMDVDSLKVSLASRGDPVTKSSSTKKMNGSGNAQKVGVEISVEEVTGELGKKDTKHKDGEMTLKDAVKPKKKRKNKS
As for B2, the binding entry was “binds” in test [3]; “no binding (only 150 mM NaCl)” in test [4]; “binds” in test [7]; “binds” in test [5]; “binds” in test [6].
